Experimental data as given in patent US20240208964A1, “PYRIDOPYRIMIDINES AND METHODS OF THEIR USE” (PYRIDOPYRIMIDINES AND METHODS OF THEIR USE, priority 2020, published 2024).
The match of structure and compound is tentative.

Amino acid sequences for entries named in this document (tags omitted).
UniProt Q9Y2I7, whole entry S696N/L932S/Q995L/T998S/S1033A/Q1183K: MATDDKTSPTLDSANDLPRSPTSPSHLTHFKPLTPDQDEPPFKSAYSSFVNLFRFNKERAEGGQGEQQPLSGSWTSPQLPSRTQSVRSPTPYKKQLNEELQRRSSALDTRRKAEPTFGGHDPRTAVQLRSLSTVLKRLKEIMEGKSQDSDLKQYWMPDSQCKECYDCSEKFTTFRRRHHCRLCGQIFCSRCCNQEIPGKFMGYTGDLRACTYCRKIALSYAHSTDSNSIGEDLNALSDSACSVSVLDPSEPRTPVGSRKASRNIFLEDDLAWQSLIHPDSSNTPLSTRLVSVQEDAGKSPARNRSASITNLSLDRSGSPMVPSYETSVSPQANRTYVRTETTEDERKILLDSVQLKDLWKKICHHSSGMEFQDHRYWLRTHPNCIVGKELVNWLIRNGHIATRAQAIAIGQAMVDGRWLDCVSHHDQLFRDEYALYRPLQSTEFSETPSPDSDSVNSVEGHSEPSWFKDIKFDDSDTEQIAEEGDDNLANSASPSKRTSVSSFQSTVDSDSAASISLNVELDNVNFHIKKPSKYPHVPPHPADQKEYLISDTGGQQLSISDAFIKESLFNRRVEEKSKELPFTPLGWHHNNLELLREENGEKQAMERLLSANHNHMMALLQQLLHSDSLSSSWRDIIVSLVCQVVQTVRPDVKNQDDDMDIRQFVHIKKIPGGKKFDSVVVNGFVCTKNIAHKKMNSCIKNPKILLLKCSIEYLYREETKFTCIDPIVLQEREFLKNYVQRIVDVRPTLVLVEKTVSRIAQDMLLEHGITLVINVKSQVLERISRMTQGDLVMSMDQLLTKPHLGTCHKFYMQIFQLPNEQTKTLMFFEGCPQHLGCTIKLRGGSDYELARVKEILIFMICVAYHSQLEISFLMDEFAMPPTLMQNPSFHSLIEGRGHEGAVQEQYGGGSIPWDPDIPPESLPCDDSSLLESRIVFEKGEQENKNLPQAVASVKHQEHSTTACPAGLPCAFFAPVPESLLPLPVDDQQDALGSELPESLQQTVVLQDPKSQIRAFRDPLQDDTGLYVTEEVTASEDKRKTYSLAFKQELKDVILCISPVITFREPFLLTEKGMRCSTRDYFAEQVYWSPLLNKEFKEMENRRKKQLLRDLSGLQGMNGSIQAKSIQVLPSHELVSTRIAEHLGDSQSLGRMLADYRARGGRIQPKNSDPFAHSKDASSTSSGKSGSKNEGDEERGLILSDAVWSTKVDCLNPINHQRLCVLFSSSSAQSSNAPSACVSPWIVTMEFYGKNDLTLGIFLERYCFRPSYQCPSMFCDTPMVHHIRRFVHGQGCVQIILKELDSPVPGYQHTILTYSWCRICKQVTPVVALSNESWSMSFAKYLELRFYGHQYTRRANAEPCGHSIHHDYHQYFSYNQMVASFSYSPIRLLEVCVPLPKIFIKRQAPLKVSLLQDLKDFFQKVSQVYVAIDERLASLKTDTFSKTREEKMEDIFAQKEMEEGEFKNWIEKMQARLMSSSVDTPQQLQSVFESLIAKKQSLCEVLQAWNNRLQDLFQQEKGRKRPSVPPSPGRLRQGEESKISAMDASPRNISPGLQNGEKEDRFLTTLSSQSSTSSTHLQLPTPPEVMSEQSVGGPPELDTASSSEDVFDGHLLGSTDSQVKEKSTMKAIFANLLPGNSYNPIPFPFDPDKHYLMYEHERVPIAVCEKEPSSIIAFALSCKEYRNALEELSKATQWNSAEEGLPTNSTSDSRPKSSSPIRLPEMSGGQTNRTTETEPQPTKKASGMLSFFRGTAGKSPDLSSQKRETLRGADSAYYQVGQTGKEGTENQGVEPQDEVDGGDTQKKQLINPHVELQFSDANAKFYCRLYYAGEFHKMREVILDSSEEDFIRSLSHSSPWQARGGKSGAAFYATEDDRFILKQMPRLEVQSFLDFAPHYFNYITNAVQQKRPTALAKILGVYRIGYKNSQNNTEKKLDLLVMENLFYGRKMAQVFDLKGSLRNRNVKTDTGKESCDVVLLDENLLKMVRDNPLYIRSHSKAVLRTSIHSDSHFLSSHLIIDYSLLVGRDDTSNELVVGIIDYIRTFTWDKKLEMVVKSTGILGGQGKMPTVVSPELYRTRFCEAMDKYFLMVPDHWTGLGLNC

Target: full-length human PIKFYVE (GST-PIKFYVE) (Homo sapiens (Human), UniProt Q9Y2I7, L932S/Q1183K/Q995L/S1033A/S696N/T998S)
Assay: PIKfyve biochemical assay (ADP-Glo Kinase assay, Carna Biosciences)
Settings: read-out: hPIKfyve IC50, tested form: 3HCl

SMILES: c1cc(-c2nc(N3CCOCC3)c3ncccc3n2)nc(C2CCNCC2)c1
- IC50: 1 to 10 µM
